Where a chain is given by its changes, count along the chain named. These are yes or no findings as the source states them, for the method shown. Binding seen in cells or lysates may run through a third protein. Some binding calls cover weakened binding; strength is not graded here. Sequences can lack the tags named with a protein.
Tests used:
Assay in all cases: pull-down; GST fusion on glutathione-Sepharose beads (typically 5 μg bait) with rat brain synaptosome lysate (2-2.5 mg protein), 10 min or 1 h at 4°C; washes in 20 mM Tris pH 7.4, 1 mM EGTA, 1 mM EDTA; Western blot with anti-clathrin heavy chain, adjusted to the bait seen by Coomassie; only the target …
[1] = target: T1, GST-CALM Site 1 mutant (human CALM isoform 1) (human) (UniProt Q13492)
T1 sequence: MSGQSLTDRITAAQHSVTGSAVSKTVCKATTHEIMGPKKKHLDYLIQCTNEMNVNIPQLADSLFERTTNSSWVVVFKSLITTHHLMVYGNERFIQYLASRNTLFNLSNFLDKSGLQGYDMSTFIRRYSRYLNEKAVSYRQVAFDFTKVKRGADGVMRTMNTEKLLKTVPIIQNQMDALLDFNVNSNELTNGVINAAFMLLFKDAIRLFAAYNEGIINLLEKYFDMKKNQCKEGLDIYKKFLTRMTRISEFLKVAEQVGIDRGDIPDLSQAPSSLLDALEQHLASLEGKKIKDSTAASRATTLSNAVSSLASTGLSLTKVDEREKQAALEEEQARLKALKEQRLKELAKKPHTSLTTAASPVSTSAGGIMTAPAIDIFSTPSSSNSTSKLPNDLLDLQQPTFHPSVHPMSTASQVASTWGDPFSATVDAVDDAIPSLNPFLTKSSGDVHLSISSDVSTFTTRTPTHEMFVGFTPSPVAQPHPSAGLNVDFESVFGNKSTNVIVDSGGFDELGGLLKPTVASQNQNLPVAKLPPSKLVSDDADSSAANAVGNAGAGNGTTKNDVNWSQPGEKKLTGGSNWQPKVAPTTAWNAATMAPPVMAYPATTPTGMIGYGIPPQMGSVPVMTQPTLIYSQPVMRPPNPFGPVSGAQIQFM

The chains behind the UniProt entries cited, without tags or fusion partners.
UniProt P11442: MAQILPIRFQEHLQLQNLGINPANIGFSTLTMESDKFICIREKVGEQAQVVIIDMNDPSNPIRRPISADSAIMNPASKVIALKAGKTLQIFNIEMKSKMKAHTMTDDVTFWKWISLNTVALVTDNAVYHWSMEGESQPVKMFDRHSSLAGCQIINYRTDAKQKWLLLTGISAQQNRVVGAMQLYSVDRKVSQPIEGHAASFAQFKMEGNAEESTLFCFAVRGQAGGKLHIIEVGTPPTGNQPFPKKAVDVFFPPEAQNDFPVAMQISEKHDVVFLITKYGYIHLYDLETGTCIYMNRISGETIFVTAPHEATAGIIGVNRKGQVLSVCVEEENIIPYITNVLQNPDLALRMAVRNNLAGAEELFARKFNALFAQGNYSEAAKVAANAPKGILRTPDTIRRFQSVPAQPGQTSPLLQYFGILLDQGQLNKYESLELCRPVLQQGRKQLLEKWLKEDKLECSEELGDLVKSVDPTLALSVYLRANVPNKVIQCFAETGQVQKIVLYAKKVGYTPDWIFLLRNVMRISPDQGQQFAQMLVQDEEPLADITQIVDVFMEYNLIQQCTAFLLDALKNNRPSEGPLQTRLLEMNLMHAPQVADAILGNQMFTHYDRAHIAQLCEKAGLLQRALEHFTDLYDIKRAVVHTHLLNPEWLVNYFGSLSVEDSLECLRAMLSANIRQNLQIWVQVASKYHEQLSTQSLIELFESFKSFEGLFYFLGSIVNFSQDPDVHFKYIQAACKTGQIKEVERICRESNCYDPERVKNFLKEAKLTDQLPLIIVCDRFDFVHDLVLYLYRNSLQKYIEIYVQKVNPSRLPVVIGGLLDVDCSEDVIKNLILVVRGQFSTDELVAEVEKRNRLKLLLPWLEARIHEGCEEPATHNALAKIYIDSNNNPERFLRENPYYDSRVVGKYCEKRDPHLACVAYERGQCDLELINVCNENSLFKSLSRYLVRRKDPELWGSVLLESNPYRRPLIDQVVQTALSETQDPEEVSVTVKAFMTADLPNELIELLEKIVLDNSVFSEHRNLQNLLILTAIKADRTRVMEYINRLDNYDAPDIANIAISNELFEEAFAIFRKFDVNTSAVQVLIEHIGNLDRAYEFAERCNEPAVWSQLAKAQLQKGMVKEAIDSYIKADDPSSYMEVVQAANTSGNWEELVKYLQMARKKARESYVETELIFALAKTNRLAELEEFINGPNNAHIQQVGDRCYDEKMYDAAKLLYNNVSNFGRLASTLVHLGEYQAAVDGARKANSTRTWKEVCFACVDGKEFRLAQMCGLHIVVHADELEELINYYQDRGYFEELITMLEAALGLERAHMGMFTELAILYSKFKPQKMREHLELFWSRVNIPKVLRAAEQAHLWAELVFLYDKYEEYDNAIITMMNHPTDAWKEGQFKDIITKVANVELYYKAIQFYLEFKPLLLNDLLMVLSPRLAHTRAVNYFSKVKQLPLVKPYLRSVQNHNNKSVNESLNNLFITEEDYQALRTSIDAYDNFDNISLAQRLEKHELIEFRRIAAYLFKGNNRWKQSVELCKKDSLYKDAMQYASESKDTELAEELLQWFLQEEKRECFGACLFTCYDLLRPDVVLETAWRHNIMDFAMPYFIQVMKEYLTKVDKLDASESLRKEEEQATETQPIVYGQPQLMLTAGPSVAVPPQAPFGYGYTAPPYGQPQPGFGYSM

[2] = target: T2, GST-CALM Site 1&2 double mutant (human CALM isoform 1) (human) (UniProt Q13492)
T2 sequence: T1 sequence with I649A, F651A, M652A

[3] = target: T3, GST-CALM WT (human CALM isoform 1) (human) (UniProt Q13492)
T3 sequence: T1 sequence with A540L, A544L, A547L, A551L, A553I

[4] = target: T4, GST-CALM Site 2 mutant (human CALM isoform 1) (human) (UniProt Q13492)
T4 sequence: T1 sequence with A540L, A544L, A547L, A551L, A553I, I649A, F651A, M652A

binding [1]: binds
binding [2]: no binding
binding [3]: binds
binding [4]: binds
Substance: clathrin from rat brain synaptosome lysate, detected as clathrin heavy chain (from UniProt P11442 1-1675)

From article PMC5004861
